In the supplement of paper PMC12067093, “Discovery and optimisation of a covalent ligand for TRIM25 and its application to targeted protein ubiquitination” (Chemical Science, 2025):
This is one part of the list.

Chains of the proteins cited; added tags and fusions are not shown. Lines headed by an entry give the natural chain unless they say otherwise; changes in a name come on top.
UniProt O15031: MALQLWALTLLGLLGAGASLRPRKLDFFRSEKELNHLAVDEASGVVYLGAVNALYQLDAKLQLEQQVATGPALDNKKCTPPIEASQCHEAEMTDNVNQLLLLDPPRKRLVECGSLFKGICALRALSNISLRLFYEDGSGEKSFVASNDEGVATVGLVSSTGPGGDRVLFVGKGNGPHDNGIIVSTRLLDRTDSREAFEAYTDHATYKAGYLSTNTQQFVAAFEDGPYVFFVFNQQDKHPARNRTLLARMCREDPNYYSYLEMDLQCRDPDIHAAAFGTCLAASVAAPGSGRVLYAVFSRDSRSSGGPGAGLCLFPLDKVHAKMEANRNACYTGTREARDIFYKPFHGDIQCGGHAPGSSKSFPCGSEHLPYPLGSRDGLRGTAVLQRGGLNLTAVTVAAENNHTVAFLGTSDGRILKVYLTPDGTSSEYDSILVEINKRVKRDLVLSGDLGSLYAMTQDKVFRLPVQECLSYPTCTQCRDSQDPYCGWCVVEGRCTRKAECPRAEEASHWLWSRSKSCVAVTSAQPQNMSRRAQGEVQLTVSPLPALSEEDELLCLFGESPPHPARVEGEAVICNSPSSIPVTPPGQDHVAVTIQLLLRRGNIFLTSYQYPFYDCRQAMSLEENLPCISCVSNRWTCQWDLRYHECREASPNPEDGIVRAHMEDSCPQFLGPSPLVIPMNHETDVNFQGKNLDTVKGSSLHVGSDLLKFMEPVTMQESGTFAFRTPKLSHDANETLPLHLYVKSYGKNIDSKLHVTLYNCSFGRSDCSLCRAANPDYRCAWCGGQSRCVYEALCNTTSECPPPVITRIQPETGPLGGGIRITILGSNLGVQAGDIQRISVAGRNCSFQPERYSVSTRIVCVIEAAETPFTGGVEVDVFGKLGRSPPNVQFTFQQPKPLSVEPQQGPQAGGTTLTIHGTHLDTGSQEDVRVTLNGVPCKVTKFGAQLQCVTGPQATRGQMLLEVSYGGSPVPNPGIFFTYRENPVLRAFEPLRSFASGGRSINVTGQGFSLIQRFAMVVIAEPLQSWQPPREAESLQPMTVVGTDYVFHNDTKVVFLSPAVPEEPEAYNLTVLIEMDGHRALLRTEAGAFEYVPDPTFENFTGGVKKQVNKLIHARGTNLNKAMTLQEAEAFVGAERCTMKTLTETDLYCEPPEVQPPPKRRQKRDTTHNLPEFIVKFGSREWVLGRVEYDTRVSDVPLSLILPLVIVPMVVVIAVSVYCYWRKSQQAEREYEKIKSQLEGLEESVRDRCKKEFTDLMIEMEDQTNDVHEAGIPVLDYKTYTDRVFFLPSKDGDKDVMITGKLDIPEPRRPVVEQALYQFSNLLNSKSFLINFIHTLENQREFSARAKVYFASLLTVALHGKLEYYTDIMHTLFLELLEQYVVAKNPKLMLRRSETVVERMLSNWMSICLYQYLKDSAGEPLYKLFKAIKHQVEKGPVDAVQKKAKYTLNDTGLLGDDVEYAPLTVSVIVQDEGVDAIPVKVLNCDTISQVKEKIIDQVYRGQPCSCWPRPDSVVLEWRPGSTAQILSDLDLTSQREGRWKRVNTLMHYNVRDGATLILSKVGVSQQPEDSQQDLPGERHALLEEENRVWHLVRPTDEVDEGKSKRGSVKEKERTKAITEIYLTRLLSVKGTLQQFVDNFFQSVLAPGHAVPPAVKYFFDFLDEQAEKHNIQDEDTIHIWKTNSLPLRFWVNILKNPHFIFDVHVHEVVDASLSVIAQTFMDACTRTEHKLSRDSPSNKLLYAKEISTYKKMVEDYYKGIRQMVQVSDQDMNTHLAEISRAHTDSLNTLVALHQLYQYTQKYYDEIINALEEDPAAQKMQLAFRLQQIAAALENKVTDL
UniProt P48739: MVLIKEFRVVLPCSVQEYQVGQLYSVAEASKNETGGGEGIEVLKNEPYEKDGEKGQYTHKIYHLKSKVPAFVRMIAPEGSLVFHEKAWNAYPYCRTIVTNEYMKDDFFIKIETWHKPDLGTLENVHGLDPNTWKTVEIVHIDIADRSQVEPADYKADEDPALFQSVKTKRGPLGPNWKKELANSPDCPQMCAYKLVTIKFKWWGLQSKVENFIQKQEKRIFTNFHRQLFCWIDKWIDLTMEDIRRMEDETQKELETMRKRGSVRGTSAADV
UniProt P54277: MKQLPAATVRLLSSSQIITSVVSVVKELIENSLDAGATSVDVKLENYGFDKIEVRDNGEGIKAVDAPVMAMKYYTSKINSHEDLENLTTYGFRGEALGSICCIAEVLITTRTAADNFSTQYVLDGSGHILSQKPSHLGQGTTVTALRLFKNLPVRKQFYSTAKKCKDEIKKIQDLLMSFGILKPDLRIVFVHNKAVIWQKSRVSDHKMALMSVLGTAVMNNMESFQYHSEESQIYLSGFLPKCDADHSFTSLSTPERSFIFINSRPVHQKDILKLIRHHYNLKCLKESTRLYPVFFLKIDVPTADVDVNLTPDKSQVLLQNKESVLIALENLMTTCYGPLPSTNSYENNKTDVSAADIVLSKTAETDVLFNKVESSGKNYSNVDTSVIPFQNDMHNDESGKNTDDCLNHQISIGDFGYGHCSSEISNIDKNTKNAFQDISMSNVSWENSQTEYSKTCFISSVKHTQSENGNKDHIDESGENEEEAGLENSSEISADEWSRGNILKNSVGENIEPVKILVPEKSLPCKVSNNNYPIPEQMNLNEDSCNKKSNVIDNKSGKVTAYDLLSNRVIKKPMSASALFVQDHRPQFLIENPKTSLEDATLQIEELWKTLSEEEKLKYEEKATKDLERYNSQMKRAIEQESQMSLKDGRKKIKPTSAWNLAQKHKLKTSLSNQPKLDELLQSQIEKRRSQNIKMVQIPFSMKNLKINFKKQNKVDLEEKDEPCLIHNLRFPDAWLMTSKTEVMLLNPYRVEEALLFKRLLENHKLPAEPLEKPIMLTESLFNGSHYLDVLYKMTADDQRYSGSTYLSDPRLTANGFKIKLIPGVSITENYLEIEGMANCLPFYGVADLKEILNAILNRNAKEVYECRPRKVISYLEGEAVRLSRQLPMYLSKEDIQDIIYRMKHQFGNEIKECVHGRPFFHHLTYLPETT
UniProt Q9Y263: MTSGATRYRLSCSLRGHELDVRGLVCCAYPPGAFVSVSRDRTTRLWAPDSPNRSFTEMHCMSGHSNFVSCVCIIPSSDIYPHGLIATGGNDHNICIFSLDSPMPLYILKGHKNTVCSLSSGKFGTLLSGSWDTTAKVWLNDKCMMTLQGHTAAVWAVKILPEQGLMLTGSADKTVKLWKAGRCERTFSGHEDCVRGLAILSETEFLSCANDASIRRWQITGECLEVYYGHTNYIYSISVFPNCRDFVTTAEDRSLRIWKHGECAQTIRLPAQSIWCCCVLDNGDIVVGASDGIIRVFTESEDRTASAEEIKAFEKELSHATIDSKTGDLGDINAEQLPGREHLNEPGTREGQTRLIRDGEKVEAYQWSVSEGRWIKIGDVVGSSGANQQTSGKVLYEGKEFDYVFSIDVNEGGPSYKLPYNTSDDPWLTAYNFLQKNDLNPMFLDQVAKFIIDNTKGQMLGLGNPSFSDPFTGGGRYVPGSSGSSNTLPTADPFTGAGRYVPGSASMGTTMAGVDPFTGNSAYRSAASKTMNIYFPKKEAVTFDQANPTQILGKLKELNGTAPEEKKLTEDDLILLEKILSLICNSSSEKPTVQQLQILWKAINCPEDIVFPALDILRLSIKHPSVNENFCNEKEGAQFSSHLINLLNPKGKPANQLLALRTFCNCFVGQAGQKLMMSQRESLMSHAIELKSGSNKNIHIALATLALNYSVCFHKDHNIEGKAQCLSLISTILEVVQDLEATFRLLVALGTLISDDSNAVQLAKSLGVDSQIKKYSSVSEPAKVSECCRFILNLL
UniProt P00491: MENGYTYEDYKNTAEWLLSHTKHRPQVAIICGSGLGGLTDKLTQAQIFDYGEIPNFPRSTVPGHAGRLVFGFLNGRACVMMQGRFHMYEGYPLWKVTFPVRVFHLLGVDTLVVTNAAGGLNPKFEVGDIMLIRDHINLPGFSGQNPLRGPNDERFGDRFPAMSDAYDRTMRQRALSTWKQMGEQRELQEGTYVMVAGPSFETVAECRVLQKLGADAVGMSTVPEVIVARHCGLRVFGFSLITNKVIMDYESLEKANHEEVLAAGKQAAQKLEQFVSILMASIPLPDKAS
UniProt Q9UPR0: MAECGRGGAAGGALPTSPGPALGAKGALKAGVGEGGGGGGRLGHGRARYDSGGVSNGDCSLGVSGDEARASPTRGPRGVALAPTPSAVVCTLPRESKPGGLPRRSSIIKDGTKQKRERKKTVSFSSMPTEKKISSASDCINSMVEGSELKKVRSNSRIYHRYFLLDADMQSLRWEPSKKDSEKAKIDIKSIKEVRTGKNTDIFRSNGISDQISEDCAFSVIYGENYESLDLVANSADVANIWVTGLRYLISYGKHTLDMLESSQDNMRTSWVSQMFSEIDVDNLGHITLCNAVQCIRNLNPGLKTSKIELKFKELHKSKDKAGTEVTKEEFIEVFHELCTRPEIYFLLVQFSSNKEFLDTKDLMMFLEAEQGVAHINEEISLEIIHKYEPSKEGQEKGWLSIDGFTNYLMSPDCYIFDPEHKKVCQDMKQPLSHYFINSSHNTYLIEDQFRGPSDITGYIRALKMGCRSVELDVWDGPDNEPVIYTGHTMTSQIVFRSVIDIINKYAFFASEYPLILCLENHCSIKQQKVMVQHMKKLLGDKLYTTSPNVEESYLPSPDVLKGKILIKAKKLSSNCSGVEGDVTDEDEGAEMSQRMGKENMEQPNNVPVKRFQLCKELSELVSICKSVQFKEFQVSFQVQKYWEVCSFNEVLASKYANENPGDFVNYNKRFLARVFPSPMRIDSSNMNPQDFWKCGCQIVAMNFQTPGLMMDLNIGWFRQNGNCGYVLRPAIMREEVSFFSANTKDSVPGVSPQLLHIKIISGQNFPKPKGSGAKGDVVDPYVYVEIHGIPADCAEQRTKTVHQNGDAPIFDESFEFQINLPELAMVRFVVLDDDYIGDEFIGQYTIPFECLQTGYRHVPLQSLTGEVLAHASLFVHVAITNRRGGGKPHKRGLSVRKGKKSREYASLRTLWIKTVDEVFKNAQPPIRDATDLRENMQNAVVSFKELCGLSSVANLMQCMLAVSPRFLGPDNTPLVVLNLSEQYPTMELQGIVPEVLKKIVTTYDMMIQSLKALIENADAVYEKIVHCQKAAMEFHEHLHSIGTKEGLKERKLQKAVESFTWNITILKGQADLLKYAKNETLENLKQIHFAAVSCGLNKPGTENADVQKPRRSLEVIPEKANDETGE
UniProt Q5JRX3: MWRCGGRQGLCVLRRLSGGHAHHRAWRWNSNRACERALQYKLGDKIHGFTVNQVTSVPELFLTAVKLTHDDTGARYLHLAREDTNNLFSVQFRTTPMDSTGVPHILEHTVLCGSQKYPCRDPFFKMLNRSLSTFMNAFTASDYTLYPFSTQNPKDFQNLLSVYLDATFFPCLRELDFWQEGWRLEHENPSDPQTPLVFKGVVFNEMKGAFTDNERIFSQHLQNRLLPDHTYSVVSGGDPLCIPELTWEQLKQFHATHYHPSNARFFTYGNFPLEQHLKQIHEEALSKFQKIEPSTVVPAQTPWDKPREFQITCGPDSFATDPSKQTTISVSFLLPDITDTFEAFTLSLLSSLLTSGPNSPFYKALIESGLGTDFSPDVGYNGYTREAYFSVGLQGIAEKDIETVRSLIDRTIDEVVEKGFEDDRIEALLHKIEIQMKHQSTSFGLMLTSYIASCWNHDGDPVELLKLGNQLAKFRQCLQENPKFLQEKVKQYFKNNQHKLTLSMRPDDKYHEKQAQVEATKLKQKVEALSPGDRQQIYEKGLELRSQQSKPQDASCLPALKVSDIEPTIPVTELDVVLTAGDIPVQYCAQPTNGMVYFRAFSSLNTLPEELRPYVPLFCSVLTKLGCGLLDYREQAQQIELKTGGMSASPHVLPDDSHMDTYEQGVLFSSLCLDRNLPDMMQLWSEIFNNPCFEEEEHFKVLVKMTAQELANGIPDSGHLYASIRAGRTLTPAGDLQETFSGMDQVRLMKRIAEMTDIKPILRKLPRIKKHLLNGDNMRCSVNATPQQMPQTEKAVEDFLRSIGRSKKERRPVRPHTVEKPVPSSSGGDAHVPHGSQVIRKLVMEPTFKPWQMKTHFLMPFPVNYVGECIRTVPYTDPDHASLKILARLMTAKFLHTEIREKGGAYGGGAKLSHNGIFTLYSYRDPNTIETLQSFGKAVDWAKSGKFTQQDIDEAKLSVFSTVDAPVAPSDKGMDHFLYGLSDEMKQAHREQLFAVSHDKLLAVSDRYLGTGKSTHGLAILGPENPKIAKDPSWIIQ

Compound: Cc1cc(ccc1-c1ccccc1)C(=O)N1CCCN(CC1)C(=O)CCl [compound 10]
Assay: probe-labelled cysteine peptide fold change vs DMSO (competition) (log2 fold change); higher = less target engagement (more negative = stronger competition)
Details: THP-1, incubation time: 4 h
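Note: competitive profiling in live THP-1 cells: cysteine peptides tagged with an iodoacetamide desthiobiotin (IA-DTB) probe, intensity after compound treatment relative to DMSO-treated cells.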

Target	probe-labelled cysteine peptide fold change (10 µM)	probe-labelled cysteine peptide fold change (50 µM)
PLXNB2_O15031_351_DIFYKPFHGDIQCGGHAPGSSK (UniProt O15031)	-0.134	-0.127
PIK3CD_O00329_90_RLCDVQPFLPVLR (UniProt O00329)	0.0359	-0.168
PITPNB_P48739_13_VVLPCSVQEYQVGQLYSVAEASK (UniProt P48739)	-0.0113	0.103
PLEC_Q15149_1098_EYGSCSHHYQQLLQSLEQGAQEESR (UniProt Q15149)	-0.125	-0.103
PMS1_P54277_868_EVYECRPR (UniProt P54277)	-0.0785	0.142
PLCB2_Q00722_945_GAAQLAELGPPGVGGVGACK (UniProt Q00722)	-0.565	-0.898
PLAA_Q9Y263_208_GLAILSETEFLSCANDASIR (UniProt Q9Y263)	0.00615	0.0556
PLEKHA2_Q9HB19_11_ICGFLDIEEHENSGK (UniProt Q9HB19)	-0.114	-0.0094
POC5_Q8NA72_360_GVCALNLEAMTIFQNR (UniProt Q8NA72)	-0.35	-0.269
PNP_P00491_78_ACVMMQGR (UniProt P00491)	-0.061	0.171
PIK3R4_Q99570_955_EQCNAER (UniProt Q99570)	-0.112	-0.0289
PLCL2_Q9UPR0_414_GWLSIDGFTNYLMSPDCYIFDPEHKK (UniProt Q9UPR0)	0.11	-0.0646
PITRM1_Q5JRX3_477_QCLQENPK (UniProt Q5JRX3)	-0.173	0.0942
PLA2G4A_P47712_726_CSVSLSNVEAR (UniProt P47712)	-0.188	-0.576

Reformatted: entries from further up.
PLCL2_Q9UPR0_414_GWLSIDGFTNYLMSPDCYIFDPEHKK (UniProt Q9UPR0)
  probe-labelled cysteine peptide fold change (10 µM): 0.11; probe-labelled cysteine peptide fold change (50 µM): -0.0646
PITRM1_Q5JRX3_477_QCLQENPK (UniProt Q5JRX3)
  probe-labelled cysteine peptide fold change (10 µM): -0.173; probe-labelled cysteine peptide fold change (50 µM): 0.0942
